Measurements taken from patent US11697639B2, “Quaternary ammonium salt compound, preparation method therefor and use thereof” (WEST CHINA HOSPITAL, SICHUAN UNIVERSITY, priority 2018, dated 2023).
Where a name gives a salt, the structure may show the parent alone.

Test system: back skin of rat
Assay: Local anesthetic effect by subcutaneous infiltration in rat back skin (Von Frey 100 g)
Format: in vivo
Details: 0.5 mL in saline, compound 6 mmol/L, bupivacaine 23 mmol/L, 10 rats per compound
Protocol: After the back of rat weighing 250-300 g was shaved and disinfected, a circle with a diameter of about 1.5 cm was drawn on the side of the exposed back, and the circle is divided into 6 equal parts. […] Among the Von Frey fiber yarns, the one with a strength of 100 g was bound to the needle for local skin stimulation. One minute After the drug was injected, the above method was used to stimulate in 6 divisions. […] If back skin contraction was observed, the local anesthetic effect was considered as loss. […] Each compound was tested with 10 rats.

## CCN(CC)CC(=O)Nc1c(C)cccc1C [Lidocaine hydrochloride, reference compound]
  Lasting time of local anesthesia (Median): 4 h
